## Primary screen of a compound library

Mtb heat-shock: 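Assay on Mycobacterium tuberculosis, filed only as a heat shock assay from Cornell; the read-out is not stated. The concentration is filed as 10 mM, unlikely as a test dose, so the dose is not known. Direction is inferred from retests: higher values go with stronger inhibition. Of about 69,000 compounds tested this way, about 930 (1.4%) reached 50% or more in at least one test.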
Mtb growth Cornell: 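Whole-cell assay for inhibitors of Mycobacterium tuberculosis growth, labelled Cornell in the record; the read-out is not stated. The concentration is filed as 10 mM, unlikely as a test dose, so the dose is not known. Higher means stronger inhibition (inferred from two other growth screens of the library). About 53,000 compounds were tested under these conditions; 1.7% (about 900) showed 50% or more at least once.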

Each number is a percent effect as filed.
How 0% and 100% were set is not recorded. Most values in the screen are low, and negative values occur.
Compounds were drawn at random from those tested, without regard to their results.

CCCc1n[nH]c(C2CN(CCn3cccn3)CCO2)n1 (stereo unspecified) read Mtb heat-shock: 0.899%; Mtb growth Cornell: -55.76%.
N#CCSCCCN1CCCN(C(=O)c2ccccc2)CC1 read Mtb heat-shock: -10.21%; Mtb growth Cornell: 22.62%.
Cn1cc(CN2CCn3cc(CNC(=O)C4CCC4)nc3C2)cn1.O=C(O)C(F)(F)F read Mtb heat-shock: -2.977%; Mtb growth Cornell: 34.35%.
O=C(O)C(F)(F)F.[H][C@@]12CN(C(=O)c3occc3C)C[C@@]1([H])N(Cc1cccnc1)C(=O)CO2 read Mtb heat-shock: -9.676%; Mtb growth Cornell: -9.603%.
COCC1Cn2nnc(-c3cnn(C)c3)c2CN1Cc1ccc(C)o1 (stereo unspecified) read Mtb heat-shock: 8.037%; Mtb growth Cornell: 39.47%.
CN(Cc1ccccc1)C(=O)CCN1C[C@H](C2CC2)[C@@H](N(C)C)C1 read Mtb heat-shock: 0.4937%.
CN1Cc2ccccc2N(CC(O)C(F)(F)F)CCC1=O (stereo unspecified) read Mtb heat-shock: 42.32%; Mtb growth Cornell: 16.63%.
O=C(NCc1csc(-c2cnccn2)n1)c1cnn2c1CCCC2 read Mtb heat-shock: -25.06%; Mtb growth Cornell: 19.2%.
COc1nc(C)ccc1CNC(=O)NC(C)Cc1c(C)nn(C)c1C (stereo unspecified) read Mtb heat-shock: 0.3332%; Mtb growth Cornell: -8.444%.
CC(=O)N1CCn2c(COCc3csc(C)n3)cnc2C1C (stereo unspecified) read Mtb heat-shock: 5.59%; Mtb growth Cornell: -2.241%.
CN1CCN(c2ccncc2S(=O)(=O)N2CCCCC2)CC1 read Mtb heat-shock: -13.89%.
CCOCc1nc2c(c(N(C)Cc3nonc3C)n1)CCNCC2 read Mtb heat-shock: -32.91%.
CC(C)NC(=O)c1cc(Br)c2c(c1)OCCO2 read Mtb heat-shock: -6.857%; Mtb growth Cornell: 11.53%.
Cl.Cl.[H][C@@]12CN(Cc3ccccc3F)C[C@]1([H])C2CN (stereo partly specified) read Mtb heat-shock: -12.63%; Mtb growth Cornell: 31.87%.
CNc1cc(N2CCCC2CNCc2ccco2)ncn1 (stereo unspecified) read Mtb heat-shock: -14.94%; Mtb growth Cornell: -23.5%.
Cc1cc(C)n(CC(=O)N2CCCC2c2cc3cccnc3[nH]2)n1 (stereo unspecified) read Mtb heat-shock: -7.153%; Mtb growth Cornell: 16.68%.
COc1ncccc1C(=O)N1CCn2c(COCC3CC3)cnc2C1C (stereo unspecified) read Mtb heat-shock: 8.782%; Mtb growth Cornell: 6.911%.
CSCCC(=O)N[C@H]1CC[C@H](Nc2nccc(-c3ccncc3)n2)C1 read Mtb heat-shock: -23.1%; Mtb growth Cornell: -14.22%.
Cc1nccn1CCCN1CCCC(c2nccn2C)C1 (stereo unspecified) read Mtb heat-shock: 0.4157%; Mtb growth Cornell: -12.31%.
COC(=O)NCCCn1ccnc1-c1ccccc1 read Mtb heat-shock: 0.9172%; Mtb growth Cornell: -2.922%.
Cc1nn(C)c2c(N3CCN(C(=O)C4CCCCC4)CC3)ncnc12 read Mtb heat-shock: -2.827%.
CNC(=O)C1CN(Cc2ccc(C#N)cc2F)c2ccccc2O1 (stereo unspecified) read Mtb heat-shock: 19.77%; Mtb growth Cornell: 105.9%.
O=C1CCC2(CCN(Cc3ncccn3)CC2)CN1CCCO read Mtb heat-shock: -23.31%; Mtb growth Cornell: -2.039%.
Cc1nccn1C1CCCN(C(=O)c2ccc(N(C)C)nc2)C1 (stereo unspecified) read Mtb heat-shock: 4.724%; Mtb growth Cornell: 22.91%.
O=C(NCCN1CCc2ccccc21)c1cc(-c2ccc(O)cc2)n[nH]1 read Mtb heat-shock: 10.5%; Mtb growth Cornell: 53.46%.
O=C(c1cccc2c1OCO2)N1CCCCC1Cn1cccn1 (stereo unspecified) read Mtb heat-shock: 26.81%; Mtb growth Cornell: 5.298%.
COCc1nc(Cn2c(C)cc(C(F)(F)F)cc2=O)no1 read Mtb heat-shock: -2.848%.
CC(C)Cn1ncc2cc(C(=O)N(C)Cc3cccc(O)c3)cnc21 read Mtb heat-shock: -7.367%; Mtb growth Cornell: 33.3%.

Repeated from the top, 3 entries:

For CCCc1n[nH]c(C2CN(CCn3cccn3)CCO2)n1 (stereo unspecified) the result was Mtb heat-shock: 0.899%; Mtb growth Cornell: -55.76%.
For N#CCSCCCN1CCCN(C(=O)c2ccccc2)CC1 the result was Mtb heat-shock: -10.21%; Mtb growth Cornell: 22.62%.
For Cn1cc(CN2CCn3cc(CNC(=O)C4CCC4)nc3C2)cn1.O=C(O)C(F)(F)F the result was Mtb heat-shock: -2.977%; Mtb growth Cornell: 34.35%.

From ChEMBL document CHEMBL3988442, “University of Dundee, Small-Polar-MMV Screening Library” (2021).